From patent CN110903391A
These are yes or no findings as the source states them, for the method shown. Some results given as binding are weak or reduced against the parent protein; the word gives no strength.

Sequences of proteins named here, by UniProt entry; tags and fusion partners are left off. A change or cut given only in a name is not applied to a line headed by its entry. Residues count along the entry.
UniProt Q9NZQ7: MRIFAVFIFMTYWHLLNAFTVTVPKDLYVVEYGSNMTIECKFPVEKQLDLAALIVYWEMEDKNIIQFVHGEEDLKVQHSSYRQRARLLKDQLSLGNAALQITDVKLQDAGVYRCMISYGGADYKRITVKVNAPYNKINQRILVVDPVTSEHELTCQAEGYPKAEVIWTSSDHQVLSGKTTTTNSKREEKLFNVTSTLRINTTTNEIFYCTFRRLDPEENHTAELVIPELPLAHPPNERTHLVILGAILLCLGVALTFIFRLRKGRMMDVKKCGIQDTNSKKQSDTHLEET
PD-L1 on 293T-PD-L1细胞: residues 19-290 of Q9NZQ7

What was measured:
[1] = target: PD-L1 on 293T-PD-L1细胞 (human) (UniProt Q9NZQ7); test: FACS on 293T-PD-L1 cells
[2] = target: PD-L1-ECD-hFc (human) (UniProt Q9NZQ7); test: ELISA, PD-L1-ECD-hFc coated
[3] = target: PD-L1 on 293T-PD-L1细胞 (human) (UniProt Q9NZQ7); test: summary of FACS (tables 7-8)
[4] = target: PD-L1-ECD-hFc (human) (UniProt Q9NZQ7); test: summary of ELISA (tables 5-6)

Measured: binding

B1: 10E9C7G2人源化完整抗体 (antibody, human IgG1, kappa, V domains shown)
VH: QVQLQQSGPGLVKPSQTLSLTCAISGDSITSGYWNWIRQSPSRGLEYMGYISYTGSTYYNLSLKSRITINRDTSKNQYSLQLNSVTPEDTAVYYCARGDYGSDWPPWFAYWGQGTTVTVSS
VL: DIQMTQSPSSLSASVGDRVTITCSASSSISSNSLQWYQQKPGKAPKLLIYRTTNLPSGVPSRFSGSGSGTDYTLTISSLQPEDFATYYCQQSSGLPLTFGQGTKLEIKR
binds: all assays above
